# Assay results: the supplement of paper PMC3334620
# Over roughly 33,000 sequences, “E-score (-0.5 to 0.5)” has its median near -0.0059; the highest 2% begin near 0.26. The list shows a part of the results.
# Target: T1, Cin5 (UniProt P40917)
# T1 sequence: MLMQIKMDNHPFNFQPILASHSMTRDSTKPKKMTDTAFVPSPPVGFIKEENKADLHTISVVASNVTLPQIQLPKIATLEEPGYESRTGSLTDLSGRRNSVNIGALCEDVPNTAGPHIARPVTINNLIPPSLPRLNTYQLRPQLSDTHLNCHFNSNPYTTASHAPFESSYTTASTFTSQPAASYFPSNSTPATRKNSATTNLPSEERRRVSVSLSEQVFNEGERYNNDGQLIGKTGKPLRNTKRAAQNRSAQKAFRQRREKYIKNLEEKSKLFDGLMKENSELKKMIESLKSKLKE
# Test: PBM E-score (8-mer binding enrichment) (E-score (-0.5 to 0.5)); higher = stronger / more preferred TF binding
# Details: protein concentration: 100 nM; construct: GST-full length
# In short: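 For each ungapped eight-base word taken together with its reverse complement, the Universal PBM Analysis Suite assigned an E-score. Binding data came from GST-tagged yeast transcription factors, applied at about 100-200 nM, on universal all-10-mer Agilent arrays made double-stranded by primer extension. Fluorescent anti-GST marked bound protein, and scans were normalised with masliner.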
row,Sequence,PBM E-score
1,ATCCTTAA,-0.102
2,ACCCACGA,-0.0605
3,GCCTAAGA,-0.214
4,GAGTCCGA,0.00774
5,GTGACTAA,0.123
6,GGCGAGTA,0.0638
7,GAGGCTGA,-0.137
8,ATATCTCA,0.277
9,TACGAGTA,0.0988
10,CTCGTCCC,-0.119
11,CTCCAGCC,-0.276
12,ACCTTTCG,-0.0242
13,ATTATTTG,0.206
14,CTTCCCAA,-0.123
15,GTGGGGGA,-0.389
16,GATATAAC,0.115
17,ATCACCCG,0.0127
18,CGATTGGC,-0.0332
19,GTTCTGGA,-0.104
20,AATGGATG,0.125
21,ACAGGTAA,0.143
22,ACACAACA,-0.0184
23,AATGTTTC,0.0706
24,TCAAGGAA,0.049
25,TCCCGAAA,-0.00206

row,Sequence,PBM E-score
1,AGTGGTAT,0.0695
2,AATCGCCA,0.00791
3,ACAAGTAT,0.221
4,AAGAGTGC,-0.0247
5,AATTTGGT,0.197
6,ATGCTCCG,-0.0609
7,ACCACCCA,0.147
8,AGACTTAC,-0.0833
9,CAAGCGGC,0.00179
10,GACGCGGC,-0.0283
11,CTCTTTAC,-0.0395
12,ACTTGACA,-0.104
13,CGACGTTA,0.158
14,ACTACGGC,-0.125
15,TCACTTAA,0.0953
16,ACCATTAG,-0.00403
17,GTAATACA,0.181
18,ATATTGAC,0.00999
19,AAGCCCCT,-0.0849
20,GTTGTCAA,0.00927
21,GCTATTAA,0.0303
22,GGAATACC,-0.0241
23,AGAAAACC,0.0613
24,CCCGGTCA,-0.102
25,GCACATGA,-0.108

row,Sequence,PBM E-score
1,ATTCTGTC,0.0802
2,ACATAGCT,-0.238
3,GTCTCTGA,-0.16
4,AATGTCAC,0.0888
5,CGCTTTAA,0.0291
6,GAGAGACC,-0.227
7,TACATCTA,0.185
8,ACGTCCGC,0.0917
9,ACTCGAAA,-0.0536
10,ACAACCGT,-0.172
11,ACAACCTA,0.0123
12,ACATGGCC,0.139
13,TTGACCAA,0.0912
14,ATAAACTA,0.14
15,ACGAGTCG,-0.116
16,CGAAGGAG,-0.125
17,CGTAACAA,0.0408
18,GACTTTCA,-0.0684
19,GACAACCC,0.00981
20,ATACACGG,0.0384
21,AGCGGATG,0.00547
22,CTGTCCGC,0.0282
23,TGATAGCA,0.16
24,AAATGATA,0.279
25,ATGTAAAT,0.207

row,Sequence,PBM E-score
1,GCACAAGC,0.0524
2,AGGGGCCC,-0.15
3,CTAATTAG,0.195
4,ATTCAGAA,-0.0671
5,AGAGCTAC,-0.0377
6,CGGCACTC,-0.0609
7,CCGAAGGA,-0.153
8,CACGATCC,-0.0444
9,CTATAGCC,-0.29
10,CGGTGCAC,-0.172
11,ACTATTCA,0.172
12,AAGCGCTT,0.242
13,ATCCGGTG,0.0447
14,CATGGCCC,-0.141
15,CCGTATAC,0.0103
16,CCGAGACA,-0.0446
17,TCCGTTAA,0.112
18,CGGTTCCC,-0.0959
19,CTCCAGAC,-0.141
20,GGGACAAA,-0.0801
21,CAACCGCC,-0.126
22,TAGGTTAA,0.137
23,CTTATGTC,0.219
24,TATGTGAA,0.0804
25,GCCTAACC,-0.12

# Exported with bars between the fields: part of the list above
row | Sequence | PBM E-score
19 | CTCCAGAC | -0.141
20 | GGGACAAA | -0.0801
21 | CAACCGCC | -0.126

# Next part:

row,Sequence,PBM E-score
1,CAAAGTCC,-0.155
2,TAGAGTAA,0.153
3,AGATCAAG,0.0682
4,AAGGTTCG,-0.0683
5,GTTGGCAA,-0.109
6,CCGTGTCC,-0.0224
7,ACGTATCA,0.156
8,CCAGGTAA,0.0331
9,AACTAATA,0.378
10,CAGCGCCG,-0.195
11,CCCCTTCG,-0.26
12,GCACATAA,0.0702
13,CCAGGTAC,-0.27
14,AACCTGCC,-0.167
15,CGGAGAAA,0.0137
16,CAGCAGAC,-0.0879
17,CGAGTAGA,-0.139
18,ACTTGATG,0.156
19,ACAAAATC,0.111
20,GGGAATCA,-0.0779
21,CAAAGCCG,-0.158
22,TAAAGGCA,0.0781
23,ACAAAAGT,0.0602
24,AAGGGACG,-0.196
25,AACCACAT,0.229

# Pulled one by one from the list above, five records:
row,Sequence,PBM E-score
12,GCACATAA,0.0702
6,CCGTGTCC,-0.0224
11,CCCCTTCG,-0.26
23,ACAAAAGT,0.0602
7,ACGTATCA,0.156

# (next part)

row,Sequence,PBM E-score
1,GAAGTAGC,-0.0396
2,GATGGGGA,0.0634
3,GGCCTTTA,-0.18
4,GTGGCCAA,0.0452
5,ACCTGCGT,-0.0767
6,GGGTTGAA,-0.0789
7,ATCAGTCC,-0.343
8,CGCATACG,0.0193
9,CCTTAAGG,-0.0006
10,CGCTAGGA,-0.11
11,CGTAACTC,-0.0438
12,AGGTTCAT,0.0138
13,CATACCAC,-0.00077
14,CCGCGTGC,-0.0723
15,GATTAAAA,0.185
16,CACATGGC,-0.136
17,AGAAGACC,-0.0854
18,ACAAATGG,0.0952
19,CTGTACTA,0.091
20,CTACACGC,-0.136
21,AAGTTACA,0.187
22,TAGTGTGA,0.0144
23,AGTCGCGA,0.167
24,AGCTATCC,-0.187
25,CCCGAGGC,-0.239

row,Sequence,PBM E-score
1,CCAACTCG,0.0703
2,ACGGGTTA,-0.139
3,ATGCCAAG,-0.045
4,CCTGCCGA,-0.126
5,GTACACTA,-0.0516
6,TCCATAGA,-0.253
7,CTATGGCC,-0.0903
8,CCCGGGAC,0.019
9,TCACAAAA,0.192
10,CTTGTGTC,0.0151
11,AGCACGGA,-0.0197
12,CCCTGGAA,-0.27
13,TGGATAAA,0.0255
14,ACGTATCC,-0.077
15,ACACACCC,-0.0386
16,CGTTGTCC,0.0987
17,CACCGCGG,0.167
18,ACCTCACA,-0.0167
19,ACCTCGAG,0.204
20,CATTATTA,0.223
21,CCTTAAAC,-0.123
22,CGGACCGA,0.0397

# Two neighbouring entries out of the list so far, for reference:
row,Sequence,PBM E-score
17,CACCGCGG,0.167
18,ACCTCACA,-0.0167
